Assay results reported in patent publication US20240189375A1, “COMPOSITION COMPRISING A […] AN EXTRACT THEREOF FOR USE IN THE TREATMENT OF A VIRAL DISEASE” (priority 2021, published 2024).
At least one compound was matched to its structure with a doubt left.

Tested on: SARS-COV-2
Assay type: cell-based, SARS-COV-2 (French isolate)

Question: With `CCC(CC)COC(=O)[C@H](C)N[P@](=O)(OC[C@H]1O[C@@](C#N)(c2ccc3c(N)ncnn23)[C@H](O)[C@@H]1O)Oc1ccccc1` [Remdesivir] as the molecule, how does the SARS-COV-2 replication read?
Answer: The SARS-COV-2 replication was “blocked SARS-COV-2 replication”.
